# These are yes or no findings as the source states them, for the method shown. Binding calls can cover weak binding; strength is not graded here.
# The chains behind the UniProt entries cited, without tags or fusion partners.
# UniProt Q9GZZ9: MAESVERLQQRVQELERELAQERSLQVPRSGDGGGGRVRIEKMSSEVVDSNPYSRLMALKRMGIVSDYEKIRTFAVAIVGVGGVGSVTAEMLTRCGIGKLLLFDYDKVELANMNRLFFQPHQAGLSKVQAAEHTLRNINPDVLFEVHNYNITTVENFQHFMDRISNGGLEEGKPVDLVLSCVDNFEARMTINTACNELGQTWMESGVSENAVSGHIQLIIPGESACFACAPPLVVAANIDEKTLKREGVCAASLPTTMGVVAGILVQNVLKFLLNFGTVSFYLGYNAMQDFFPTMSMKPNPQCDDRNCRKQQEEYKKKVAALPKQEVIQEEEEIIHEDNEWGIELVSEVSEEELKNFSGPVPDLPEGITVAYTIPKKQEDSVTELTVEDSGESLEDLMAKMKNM
# Target: T1, GST-UBA5 (UniProt Q9GZZ9 1-404)
# T1 construct: also called E1-like enzyme for ufmylation; source: recombinant, E. coli, purified on Glutathione Sepharose 4B (GST kept)
# Assay: pull-down; GST-UBA5 bound to Glutathione Sepharose 4B, incubated 20 min at 4°C with purified proteins in 20 mM Tris-Cl pH 7.5, 150 mM NaCl, 1 mM EDTA, 1 mM DTT, 0.05% Nonidet P-40; NuPAGE and Coomassie staining; both purified
substance,measurement,value
UFM1 R81C (recombinant) (from UniProt P61960-1),binding,binds
